From publication PMC4527729, “The Inner Membrane Protein PilG Interacts with DNA and the Secretin PilQ in Transformation”
These are yes or no findings as the source states them, for the method shown. For some assays here: A result given as binding can be weak or reduced; the word gives no strength.

How the values were obtained:
Test in all cases: far-Western, overlay or dot blot; 1 ug of each purified protein (PilQ proteins, PilN, PilO, PilP, PilF, PilT, ComP, ComL, purified pili, BSA) resolved by SDS-PAGE, blotted on nitrocellulose, renatured overnight at 4°C in renaturing buffer (0.25% gelatin, 0.5% BSA, 0.2% Triton X-100, 10 mM Tris-HCl, 5 mM β-mercaptoethanol, 100 mM NaCl, pH 7.5); membrane incubated 3 h with 1 ug purified full-length or partial PilG in 10 ml renaturing buffer; bound PilG detected with rabbit antiserum; both purified
PilN (N. meningitidis) = molecular target: T1, PilN (N. meningitidis) (UniProt Q4W563)
T1 sequence: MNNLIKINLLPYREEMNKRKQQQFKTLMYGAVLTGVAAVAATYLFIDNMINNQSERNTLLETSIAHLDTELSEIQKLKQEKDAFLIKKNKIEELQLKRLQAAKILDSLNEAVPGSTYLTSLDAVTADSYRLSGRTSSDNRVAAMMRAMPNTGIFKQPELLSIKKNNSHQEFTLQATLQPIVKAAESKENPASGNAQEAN

PilF (N. meningitidis) = molecular target: T2, PilF (N. meningitidis) (UniProt Q7DDR2)
T2 sequence: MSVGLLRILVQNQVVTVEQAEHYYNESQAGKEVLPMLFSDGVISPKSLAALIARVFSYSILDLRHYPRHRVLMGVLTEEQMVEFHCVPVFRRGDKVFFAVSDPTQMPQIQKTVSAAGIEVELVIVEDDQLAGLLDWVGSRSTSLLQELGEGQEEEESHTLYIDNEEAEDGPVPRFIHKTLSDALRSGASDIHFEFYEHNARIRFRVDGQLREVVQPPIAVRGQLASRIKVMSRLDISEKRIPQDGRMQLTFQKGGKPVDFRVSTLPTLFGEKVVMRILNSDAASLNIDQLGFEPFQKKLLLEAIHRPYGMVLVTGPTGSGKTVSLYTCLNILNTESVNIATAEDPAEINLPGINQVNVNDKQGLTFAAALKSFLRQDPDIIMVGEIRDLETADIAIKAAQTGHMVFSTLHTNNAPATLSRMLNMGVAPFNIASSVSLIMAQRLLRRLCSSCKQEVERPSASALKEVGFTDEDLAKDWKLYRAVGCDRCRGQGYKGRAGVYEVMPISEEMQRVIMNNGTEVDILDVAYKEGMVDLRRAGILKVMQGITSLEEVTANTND

PilO (N. meningitidis) = molecular target: T3, PilO (N. meningitidis) (UniProt Q7DD78)
T3 sequence: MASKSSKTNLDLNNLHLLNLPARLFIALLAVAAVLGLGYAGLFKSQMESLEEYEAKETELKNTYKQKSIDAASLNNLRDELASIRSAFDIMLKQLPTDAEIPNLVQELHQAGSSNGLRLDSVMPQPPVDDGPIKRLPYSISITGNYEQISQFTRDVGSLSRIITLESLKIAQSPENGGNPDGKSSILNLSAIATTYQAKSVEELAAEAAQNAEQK

[1] = molecular target: T4, PilQ full-length (PilQ_(FL/1-761)) (N. meningitidis) (UniProt Q70M91)
T4 sequence: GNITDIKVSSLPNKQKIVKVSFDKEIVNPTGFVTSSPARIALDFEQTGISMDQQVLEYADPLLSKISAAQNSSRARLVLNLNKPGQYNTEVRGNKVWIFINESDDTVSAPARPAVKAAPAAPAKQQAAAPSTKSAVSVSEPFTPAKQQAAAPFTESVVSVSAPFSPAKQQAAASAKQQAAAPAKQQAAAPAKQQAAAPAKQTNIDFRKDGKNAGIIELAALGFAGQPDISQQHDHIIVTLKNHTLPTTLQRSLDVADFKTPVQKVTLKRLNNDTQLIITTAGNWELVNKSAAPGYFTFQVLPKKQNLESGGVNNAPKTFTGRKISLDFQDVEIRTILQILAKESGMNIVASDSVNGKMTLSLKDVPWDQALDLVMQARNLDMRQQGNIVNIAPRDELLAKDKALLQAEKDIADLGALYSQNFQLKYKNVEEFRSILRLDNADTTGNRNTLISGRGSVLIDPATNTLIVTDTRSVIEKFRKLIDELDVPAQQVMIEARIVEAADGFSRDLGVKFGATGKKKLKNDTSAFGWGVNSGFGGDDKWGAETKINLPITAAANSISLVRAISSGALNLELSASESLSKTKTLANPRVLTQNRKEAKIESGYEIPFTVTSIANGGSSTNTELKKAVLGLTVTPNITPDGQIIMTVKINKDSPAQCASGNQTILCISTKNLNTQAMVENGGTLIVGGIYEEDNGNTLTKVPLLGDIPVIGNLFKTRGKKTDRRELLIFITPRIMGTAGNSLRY

PilG full-length (PilG_(FL/1-410)) (N. meningitidis MC58)
binding (PilN (N. meningitidis)): no binding (tested: 1 μg in 10 ml renaturing buffer)
binding (PilF (N. meningitidis)): no binding (tested: 1 μg in 10 ml renaturing buffer)
binding (PilO (N. meningitidis)): no binding (tested: 1 μg in 10 ml renaturing buffer)
binding [1]: binds

PilG_(1-178) (N. meningitidis MC58) (domain or fragment)
binding (PilN (N. meningitidis)): no binding (tested: 1 μg in 10 ml renaturing buffer)
binding (PilF (N. meningitidis)): no binding (tested: 1 μg in 10 ml renaturing buffer)
binding (PilO (N. meningitidis)): no binding (tested: 1 μg in 10 ml renaturing buffer)
binding [1]: binds

PilG_(1-256) (N. meningitidis MC58) (domain or fragment)
binding (PilN (N. meningitidis)): no binding (tested: 1 μg in 10 ml renaturing buffer)
binding (PilF (N. meningitidis)): no binding (tested: 1 μg in 10 ml renaturing buffer)
binding (PilO (N. meningitidis)): no binding (tested: 1 μg in 10 ml renaturing buffer)
binding [1]: binds

PilG_(166-410) (N. meningitidis MC58) (domain or fragment)
binding (PilN (N. meningitidis)): no binding (tested: 1 μg in 10 ml renaturing buffer)
binding (PilF (N. meningitidis)): no binding (tested: 1 μg in 10 ml renaturing buffer)
binding (PilO (N. meningitidis)): no binding (tested: 1 μg in 10 ml renaturing buffer)
binding [1]: no binding (tested: 1 μg in 10 ml renaturing buffer)

PilG_(257-410) (N. meningitidis MC58) (domain or fragment)
binding (PilN (N. meningitidis)): no binding (tested: 1 μg in 10 ml renaturing buffer)
binding (PilF (N. meningitidis)): no binding (tested: 1 μg in 10 ml renaturing buffer)
binding (PilO (N. meningitidis)): no binding (tested: 1 μg in 10 ml renaturing buffer)
binding [1]: no binding (tested: 1 μg in 10 ml renaturing buffer)
